Here are results for one molecule from article PMC7843934.

Results are given in words; binding and its absence hold for the method and conditions named. Some binding calls cover weakened binding; strength is not graded here.

For this assay, the target named is T1, serum response factor (SRF) (human (endogenous in LX-2)) (UniProt P11831).
T1 sequence: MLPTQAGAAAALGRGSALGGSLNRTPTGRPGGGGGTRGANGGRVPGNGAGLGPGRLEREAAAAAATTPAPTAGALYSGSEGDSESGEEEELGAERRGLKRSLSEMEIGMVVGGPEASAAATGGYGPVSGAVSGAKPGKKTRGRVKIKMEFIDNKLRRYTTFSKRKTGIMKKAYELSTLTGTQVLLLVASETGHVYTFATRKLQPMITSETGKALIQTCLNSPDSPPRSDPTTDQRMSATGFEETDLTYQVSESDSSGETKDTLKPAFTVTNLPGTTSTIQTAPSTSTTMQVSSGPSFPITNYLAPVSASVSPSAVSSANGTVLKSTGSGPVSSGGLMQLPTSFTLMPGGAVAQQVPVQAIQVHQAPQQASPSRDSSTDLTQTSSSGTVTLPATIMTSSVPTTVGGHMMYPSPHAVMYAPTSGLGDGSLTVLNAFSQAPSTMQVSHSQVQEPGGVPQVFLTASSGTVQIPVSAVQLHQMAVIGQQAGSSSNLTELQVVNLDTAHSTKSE
The experiment in a line: re-ChIP (sequential chromatin immunoprecipitation); LX-2 cells with or without TGF-β (5 ng/ml) for 24 h; chromatin cross-linked with 1% formaldehyde, sonicated to ~200 bp; immune complexes eluted (1% SDS, 100 mM NaCO3), diluted in re-ChIP buffer and precipitated with a second antibody; read out on the proximal EREG promoter.

B1: myocardin-related transcription factor A (MRTF-A) (protein, UniProt Q969V6 1-931)
chain: MPPLKSPAAFHEQRRSLERARTEDYLKRKIRSRPERSELVRMHILEETSAEPSLQAKQLKLKRARLADDLNEKIAQRPGPMELVEKNILPVESSLKEAIIVGQVNYPKVADSSSFDEDSSDALSPEQPASHESQGSVPSPLEARVSEPLLSATSASPTQVVSQLPMGRDSREMLFLAEQPPLPPPPLLPPSLTNGTTIPTAKSTPTLIKQSQPKSASEKSQRSKKAKELKPKVKKLKYHQYIPPDQKQDRGAPPMDSSYAKILQQQQLFLQLQILNQQQQQHHNYQAILPAPPKSAGEALGSSGTPPVRSLSTTNSSSSSGAPGPCGLARQNSTSLTGKPGALPANLDDMKVAELKQELKLRSLPVSGTKTELIERLRAYQDQISPVPGAPKAPAATSILHKAGEVVVAFPAARLSTGPALVAAGLAPAEVVVATVASSGVVKFGSTGSTPPVSPTPSERSLLSTGDENSTPGDTFGEMVTSPLTQLTLQASPLQILVKEEGPRAGSCCLSPGGRAELEGRDKDQMLQEKDKQIEALTRMLRQKQQLVERLKLQLEQEKRAQQPAPAPAPLGTPVKQENSFSSCQLSQQPLGPAHPFNPSLAAPATNHIDPCAVAPGPPSVVVKQEALQPEPEPVPAPQLLLGPQGPSLIKGVAPPTLITDSTGTHLVLTVTNKNADSPGLSSGSPQQPSSQPGSPAPAPSAQMDLEHPLQPLFGTPTSLLKKEPPGYEEAMSQQPKQQENGSSSQQMDDLFDILIQSGEISADFKEPPSLPGKEKPSPKTVCGSPLAAQPSPSAELPQAAPPPPGSPSLPGRLEDFLESSTGLPLLTSGHDGPEPLSLIDDLHSQMLSSTAILDHPPSPMDTSELHFVPEPSSTMGLDLADGHLDSMDWLELSSGGPVLSLAPLSTTAPSLFSTDFLDGHDLQLHWDSCL
As for B1, the binding entry is “binds”.
